From publication PMC3897949
These are yes or no findings as the source states them, for the method shown. Some binding calls cover weakened binding; strength is not graded here. For some of these results: Sequences can lack the tags named with a protein.

B1: PCAF HAT domain (amino acids 493-658), His-tagged, Q92831 493-658 (domain or fragment)
chain: VIEFHVVGNSLNQKPNKKILMWLVGLQNVFSHQLPRMPKEYITRLVFDPKHKTLALIKDGRVIGGICFRMFPSQGFTEIVFCAVTSNEQVKGYGTHLMNHLKEYHIKHDILNFLTYADEYAIGYFKKQGFSKEIKIPKTKYVGYIKDYEGATLMGCELNPRIPYTE
B2: shortened PCAF HAT domain (amino acids 496-658) (domain or fragment, UniProt Q92831 496-658)
chain: FHVVGNSLNQKPNKKILMWLVGLQNVFSHQLPRMPKEYITRLVFDPKHKTLALIKDGRVIGGICFRMFPSQGFTEIVFCAVTSNEQVKGYGTHLMNHLKEYHIKHDILNFLTYADEYAIGYFKKQGFSKEIKIPKTKYVGYIKDYEGATLMGCELNPRIPYTE

Tests used:
[1] = molecular target: MBP-PCAF HAT domain (amino acids 493-658) fusion protein (human), Q92831; assay: pull-down; MBP or MBP-PCAF (60 μg) rebound on amylose agarose beads with 60 μg His-tagged PCAF; 50 mM Tris pH8.0, 150 mM sodium chloride, 5 mM ß-ME, 3 mM EDTA, 2 h at 4°C; washes with 0.03% Triton X-100; SDS-PAGE, coomassie blue; both purified; settings: remark: other sources report otherwise
[2] = molecular target: T1, PCAF HAT domain (amino acids 493-658), His-tagged (human), Q92831; assay: cross-linking; 1 mg/ml protein in 50 mM HEPES pH7.5, 50 mM sodium sulfate; DSS at 5X molar concentration, 1 h at room temperature; SDS-PAGE, coomassie blue; both purified; settings: remark: other sources report otherwise
[3] = molecular target: T1, PCAF HAT domain (amino acids 493-658), …; assay: crystal structure; PCAF HAT domain with acetyl-CoA; crystals from 0.2 M lithium sulfate, 0.1 M HEPES pH7.4, 1.2 M ammonium sulfate, 10 mM trimethylamine HCl; space group P43, four HAT domains in one asymmetric unit; 2.31 Å; both purified; settings: remark: other sources report otherwise
[4] = molecular target: shortened PCAF HAT domain (amino acids 496-658) (human) (UniProt Q92831); assay: cross-linking; DSS cross-linking of the shortened HAT domain (496-658) without further mutations; data not shown; both purified

Binder | binding [1] | binding [2] | binding [3] | binding [4]
B1 | binds | binds | binds | –
B2 | – | – | – | binds
